Measurements reported in PubChem BioAssay AID1159584 (Peter MacCallum Cancer Centre, 2016)
Here is an unselected part of about 18,000 reagents tested. Further read-outs or replicates are left out here. Not stated in the record: the amount of reagent, the time to read-out.

Test: 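Genes that CDH1-null MCF10A cells selectively depend on to survive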 (primary screen)
System: human MCF10A breast epithelial cells, parental and CDH1-null
Reagent: siRNA against human genes
Detection: 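Cell viability by CellTiter-Glo ATP luminescence, each line scaled to the mean of mock wells across plates, then CDH1-null over parental ratio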
Reading the numbers: CDH1-null / parental viability ratio: higher = CDH1-null cells survive relatively better than parental

For AAMDC (adipogenesis associated Mth938 domain containing) the deposit lists CDH1-null / parental viability ratio 1.69. Knock-down of DEFB104B (defensin beta 104B) resulted in: CDH1-null / parental viability ratio 1.58. DVL3 (dishevelled segment polarity protein 3) scored CDH1-null / parental viability ratio 1.02. After knock-down of KMT5B (lysine methyltransferase 5B) the results were CDH1-null / parental viability ratio 1.04. SLC29A4 scored CDH1-null / parental viability ratio 1.25. With knock-down of ITM2A (integral membrane protein 2A), the record shows CDH1-null / parental viability ratio 0.88.

Depletion of OARD1 (O-acyl-ADP-ribose deacylase 1) resulted in: CDH1-null / parental viability ratio 1.24. After knock-down of CCDC197 (coiled-coil domain containing 197), the screen gave CDH1-null / parental viability ratio 1.09. Depletion of ASIC5 (acid sensing ion channel subunit family member 5) gave: CDH1-null / parental viability ratio 1.22. Against CTPS1 (CTP synthase 1), the values are CDH1-null / parental viability ratio 0.98. Against H1-8 (H1.8 linker histone), the entry reads CDH1-null / parental viability ratio 1.1. After knock-down of ZFHX3 (zinc finger homeobox 3), the screen gave CDH1-null / parental viability ratio 1.18.

Knock-down of ARK2C resulted in: CDH1-null / parental viability ratio 0.83. Knock-down of TMEM63A (transmembrane protein 63A) gave: CDH1-null / parental viability ratio 1.12. For HEATR5B (HEAT repeat containing 5B), the entry reads CDH1-null / parental viability ratio 0.96. DNAJC17 (DnaJ heat shock protein family (Hsp40) member C17) scored CDH1-null / parental viability ratio 1.05. For AOPEP (aminopeptidase O (putative)), the values are CDH1-null / parental viability ratio 1.19. EXOSC2 (exosome component 2) scored CDH1-null / parental viability ratio 0.84.

After knock-down of ALX1 (ALX homeobox 1), the record shows CDH1-null / parental viability ratio 0.87. SULT1B1 (sulfotransferase family 1B member 1) scored CDH1-null / parental viability ratio 1.21. Depletion of TVP23A (trans-golgi network vesicle protein 23 homolog A) came out at: CDH1-null / parental viability ratio 0.94. For SDF4 (stromal cell derived factor 4), the values are CDH1-null / parental viability ratio 1.08. Silencing of FBXO2 (F-box protein 2) gave: CDH1-null / parental viability ratio 0.81. PKP2 (plakophilin 2) scored CDH1-null / parental viability ratio 1.

FBXO46 (F-box protein 46) scored CDH1-null / parental viability ratio 0.89. P4HTM (prolyl 4-hydroxylase, transmembrane) scored CDH1-null / parental viability ratio 0.99. Against OR2AG1 (olfactory receptor family 2 subfamily AG member 1), the entry reads CDH1-null / parental viability ratio 0.96. Knock-down of SORT1 (sortilin 1) gave: CDH1-null / parental viability ratio 0.69. After knock-down of FHL2 (four and a half LIM domains 2), the record shows CDH1-null / parental viability ratio 1. For ABCB5 (ATP binding cassette subfamily B member 5), the entry reads CDH1-null / parental viability ratio 1.06.

Against YIPF7 (Yip1 domain family member 7), the entry reads CDH1-null / parental viability ratio 1.23. Against PPHLN1 (periphilin 1), the values are CDH1-null / parental viability ratio 1.15. With knock-down of FJX1 (four-jointed box kinase 1), the record shows CDH1-null / parental viability ratio 0.8. With knock-down of SS18L2 (SS18 like 2), the record shows CDH1-null / parental viability ratio 0.84. PACSIN2 (protein kinase C and casein kinase substrate in neurons 2) showed CDH1-null / parental viability ratio 0.85.

2 entries from above, arranged by “CDH1-null / parental viability ratio”, descending.
P4HTM (prolyl 4-hydroxylase, transmembrane) | CDH1-null / parental viability ratio = 0.99
OR2AG1 (olfactory receptor family 2 subfamily AG member 1) | CDH1-null / parental viability ratio = 0.96
